No constants are given. Whether binding was seen depends on the method and setting. Binding seen in cells or lysates may run through a third protein. Some results given as binding are weak or reduced against the parent protein; the word gives no strength.
T1: vezatin (mouse (endogenous in mouse hippocampus)) (UniProt Q3ZK22)
T1 sequence: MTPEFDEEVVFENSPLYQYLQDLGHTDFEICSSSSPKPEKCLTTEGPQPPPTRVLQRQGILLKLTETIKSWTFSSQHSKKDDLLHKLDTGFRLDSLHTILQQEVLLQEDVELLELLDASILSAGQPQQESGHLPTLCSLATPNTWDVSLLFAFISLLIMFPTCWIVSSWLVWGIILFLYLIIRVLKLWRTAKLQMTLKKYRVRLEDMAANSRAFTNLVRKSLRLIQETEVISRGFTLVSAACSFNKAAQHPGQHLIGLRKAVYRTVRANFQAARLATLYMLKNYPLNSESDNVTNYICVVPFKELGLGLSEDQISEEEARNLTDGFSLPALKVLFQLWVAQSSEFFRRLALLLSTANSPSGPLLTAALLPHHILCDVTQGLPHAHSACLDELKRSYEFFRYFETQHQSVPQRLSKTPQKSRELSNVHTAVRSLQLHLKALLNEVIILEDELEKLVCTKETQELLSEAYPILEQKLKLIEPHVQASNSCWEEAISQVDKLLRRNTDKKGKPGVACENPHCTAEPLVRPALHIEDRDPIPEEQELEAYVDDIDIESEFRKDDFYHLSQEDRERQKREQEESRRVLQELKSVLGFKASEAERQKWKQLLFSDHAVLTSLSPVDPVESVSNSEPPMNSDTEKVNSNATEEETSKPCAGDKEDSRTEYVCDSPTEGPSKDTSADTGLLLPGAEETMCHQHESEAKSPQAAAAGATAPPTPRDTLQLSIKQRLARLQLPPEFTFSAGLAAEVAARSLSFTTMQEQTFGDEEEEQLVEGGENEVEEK

By UniProt entry, the sequences of proteins in these tests, tags left out.
UniProt P11798: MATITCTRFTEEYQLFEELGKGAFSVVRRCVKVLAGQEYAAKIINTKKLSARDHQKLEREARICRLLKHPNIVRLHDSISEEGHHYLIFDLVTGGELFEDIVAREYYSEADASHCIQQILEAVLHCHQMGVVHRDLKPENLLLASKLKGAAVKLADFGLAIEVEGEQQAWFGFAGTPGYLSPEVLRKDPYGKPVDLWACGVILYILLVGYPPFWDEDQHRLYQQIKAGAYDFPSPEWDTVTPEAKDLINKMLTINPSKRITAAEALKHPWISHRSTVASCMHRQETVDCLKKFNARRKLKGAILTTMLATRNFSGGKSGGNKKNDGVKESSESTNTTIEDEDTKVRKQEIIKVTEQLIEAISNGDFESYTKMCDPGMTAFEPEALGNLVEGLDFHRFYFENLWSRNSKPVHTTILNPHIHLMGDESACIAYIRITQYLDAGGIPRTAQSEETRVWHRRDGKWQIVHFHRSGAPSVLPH

B1: AKAP150 (protein, UniProt D3YVF0 1-745)
chain: METSVSEIQVETKDEKGPVAASPQKERQERKTATLCFKRRKKANKTKPKAGSRTAEETKKHTPEAGGSGQRQPAGAWASIKGLVTHRKRSEPAKKQKPPEAEVQPEDGALPKKKAKSRLKFPCLRFSRGAKRSRHSKLTEDSGYVRVQGEADDLEIKAQTQPDDQAIQAGSTQGLQEGVLVRDGKKSQESHISNSVTSGENVIAIELELENKSSAIQMGTPELEKETKVITEKPSVQTQRASLLESSAAGSPRSVTSAAPPSPATTHQHSLEEPSNGIRESAPSGKDDRRKTAAEEKKSGETALGQAEEAAVGQADKRALSQAGEATAGHPEEATVIQAESQAKEGKLSQAEETTVAQAKETVLSQAKEGELSQAKKATVGQAEEATIDHTEKVTVDQAEETTVGQAEEATVGQAGEAILSQAKEATVVGQAEEATVDRAEEATVGQAEEATVGHTEKVTVDQAEEATVGQAEEATVGQAEEATVDWAEKPTVGQAEEATVGQAEEATVGHTEKVTVDQAEEATVGQAEEATVGHTEKVTVDHAEEATVGQAEEATVGQAEKVTVDHAEEATVGQAEEATVGQAEKVTVDHAEEATVGQAEEATVGQAEKVTVDQAEEPTVDQAEEAISSHAPDLKENGIDTEKPRSEESKRMEPIAIIITDTEISEFDVKKSKNVPKQFLISMENEQVGVFANDSDFEGRTSEQYETLLIETASSLVKNAIELSVEQLVNEMVSEDNQINTLFQ

Target: T1, vezatin (mouse (endogenous in mouse hippocampus))
Test: co-IP; whole protein extract of mouse brain (hippocampus) tissue, pre-cleared with IgG and Protein A + G agarose; antibody overnight at 4 °C, beads 3 h at 4 °C, five washes with lysis buffer; western blot; endogenous proteins

| binding | Molecule |
| --- | --- |
| binds | calcium/calmodulin-dependent kinase II-α (from UniProt P11798 1-478) (enzyme) |
| binds | B1 |
